These results are taken from paper PMC7226812.

Protein sequences, listed by entry. Tags and fused reporters are not part of them. Lines headed by an entry give the natural chain unless they say otherwise; changes in a name come on top. Residues count along the entry.
UniProt Q13619: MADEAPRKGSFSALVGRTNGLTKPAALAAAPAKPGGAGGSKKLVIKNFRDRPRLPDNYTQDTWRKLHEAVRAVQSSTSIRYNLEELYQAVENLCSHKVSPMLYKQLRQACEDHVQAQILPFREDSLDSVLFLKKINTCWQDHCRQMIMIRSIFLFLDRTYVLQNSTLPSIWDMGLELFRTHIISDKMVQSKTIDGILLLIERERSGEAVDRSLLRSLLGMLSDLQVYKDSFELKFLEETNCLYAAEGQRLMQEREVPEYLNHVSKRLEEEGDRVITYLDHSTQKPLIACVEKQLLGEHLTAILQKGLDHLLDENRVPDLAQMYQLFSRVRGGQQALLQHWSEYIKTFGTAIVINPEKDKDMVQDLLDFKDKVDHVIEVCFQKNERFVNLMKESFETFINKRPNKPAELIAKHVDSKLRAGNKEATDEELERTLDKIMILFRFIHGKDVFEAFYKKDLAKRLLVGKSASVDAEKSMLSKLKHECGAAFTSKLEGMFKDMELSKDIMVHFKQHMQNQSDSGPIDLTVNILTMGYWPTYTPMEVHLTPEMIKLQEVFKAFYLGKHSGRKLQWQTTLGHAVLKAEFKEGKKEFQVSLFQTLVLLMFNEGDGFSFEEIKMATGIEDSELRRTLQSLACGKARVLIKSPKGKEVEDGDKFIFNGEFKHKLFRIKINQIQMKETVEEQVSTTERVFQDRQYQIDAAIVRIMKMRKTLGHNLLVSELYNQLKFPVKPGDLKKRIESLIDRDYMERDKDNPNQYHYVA
UniProt Q8TEB1: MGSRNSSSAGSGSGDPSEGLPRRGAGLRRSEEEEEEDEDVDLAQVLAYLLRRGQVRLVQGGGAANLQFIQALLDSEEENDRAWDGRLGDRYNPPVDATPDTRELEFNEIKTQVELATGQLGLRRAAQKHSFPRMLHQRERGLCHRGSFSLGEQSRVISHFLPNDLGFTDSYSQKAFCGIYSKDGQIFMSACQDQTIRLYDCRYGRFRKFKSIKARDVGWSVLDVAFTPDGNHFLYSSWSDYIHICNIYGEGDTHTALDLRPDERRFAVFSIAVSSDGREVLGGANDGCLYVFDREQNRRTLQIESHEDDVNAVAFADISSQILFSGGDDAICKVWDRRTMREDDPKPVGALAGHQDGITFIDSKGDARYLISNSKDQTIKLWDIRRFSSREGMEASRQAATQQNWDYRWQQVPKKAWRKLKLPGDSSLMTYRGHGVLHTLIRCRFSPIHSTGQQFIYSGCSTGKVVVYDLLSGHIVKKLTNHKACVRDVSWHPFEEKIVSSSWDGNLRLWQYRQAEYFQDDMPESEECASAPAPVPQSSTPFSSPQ
UniProt Q5TAQ9: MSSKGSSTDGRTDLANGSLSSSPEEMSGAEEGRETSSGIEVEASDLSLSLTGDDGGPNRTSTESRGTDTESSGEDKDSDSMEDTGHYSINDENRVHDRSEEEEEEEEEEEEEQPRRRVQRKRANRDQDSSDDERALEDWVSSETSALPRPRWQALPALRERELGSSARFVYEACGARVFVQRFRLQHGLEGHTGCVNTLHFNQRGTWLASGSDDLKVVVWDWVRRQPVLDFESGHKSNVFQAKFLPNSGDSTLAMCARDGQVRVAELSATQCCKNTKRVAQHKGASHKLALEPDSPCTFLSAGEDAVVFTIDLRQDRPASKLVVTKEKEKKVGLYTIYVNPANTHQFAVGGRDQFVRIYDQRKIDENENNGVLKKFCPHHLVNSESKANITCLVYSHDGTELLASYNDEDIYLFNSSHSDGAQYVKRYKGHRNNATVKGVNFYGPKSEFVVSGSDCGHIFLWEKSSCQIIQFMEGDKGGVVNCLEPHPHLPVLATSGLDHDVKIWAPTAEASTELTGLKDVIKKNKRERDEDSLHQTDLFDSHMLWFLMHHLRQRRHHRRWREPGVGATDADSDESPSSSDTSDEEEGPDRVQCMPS
UniProt Q09028: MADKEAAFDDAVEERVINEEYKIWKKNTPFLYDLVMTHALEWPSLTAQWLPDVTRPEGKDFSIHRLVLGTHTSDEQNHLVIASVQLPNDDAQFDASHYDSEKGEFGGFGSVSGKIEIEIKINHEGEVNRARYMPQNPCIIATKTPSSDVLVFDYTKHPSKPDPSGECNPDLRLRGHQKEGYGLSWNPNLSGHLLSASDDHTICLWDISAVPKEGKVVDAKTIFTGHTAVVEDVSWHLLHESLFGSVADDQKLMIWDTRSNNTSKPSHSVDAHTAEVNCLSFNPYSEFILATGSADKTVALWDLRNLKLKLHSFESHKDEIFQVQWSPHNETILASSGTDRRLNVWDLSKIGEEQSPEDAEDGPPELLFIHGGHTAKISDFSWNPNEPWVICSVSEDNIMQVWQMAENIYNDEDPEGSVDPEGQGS
UniProt Q13586, residues 23-685: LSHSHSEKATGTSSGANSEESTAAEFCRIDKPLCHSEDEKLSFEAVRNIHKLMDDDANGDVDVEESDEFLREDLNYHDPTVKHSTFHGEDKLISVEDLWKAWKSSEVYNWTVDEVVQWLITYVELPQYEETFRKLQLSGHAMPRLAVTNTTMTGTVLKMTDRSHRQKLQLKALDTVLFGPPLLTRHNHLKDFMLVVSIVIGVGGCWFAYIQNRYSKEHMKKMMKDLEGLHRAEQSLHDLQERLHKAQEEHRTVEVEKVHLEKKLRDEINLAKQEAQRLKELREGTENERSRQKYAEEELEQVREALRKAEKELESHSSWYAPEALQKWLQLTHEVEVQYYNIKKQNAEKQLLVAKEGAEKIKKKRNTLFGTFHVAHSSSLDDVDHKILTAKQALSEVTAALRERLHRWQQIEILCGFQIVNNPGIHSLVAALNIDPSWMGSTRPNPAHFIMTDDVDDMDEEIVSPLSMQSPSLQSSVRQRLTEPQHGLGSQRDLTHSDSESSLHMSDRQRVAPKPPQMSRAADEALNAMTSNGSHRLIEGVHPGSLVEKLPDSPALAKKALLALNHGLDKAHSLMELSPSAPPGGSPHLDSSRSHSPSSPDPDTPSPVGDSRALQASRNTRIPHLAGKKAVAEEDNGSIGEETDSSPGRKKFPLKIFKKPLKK
UniProt Q14997: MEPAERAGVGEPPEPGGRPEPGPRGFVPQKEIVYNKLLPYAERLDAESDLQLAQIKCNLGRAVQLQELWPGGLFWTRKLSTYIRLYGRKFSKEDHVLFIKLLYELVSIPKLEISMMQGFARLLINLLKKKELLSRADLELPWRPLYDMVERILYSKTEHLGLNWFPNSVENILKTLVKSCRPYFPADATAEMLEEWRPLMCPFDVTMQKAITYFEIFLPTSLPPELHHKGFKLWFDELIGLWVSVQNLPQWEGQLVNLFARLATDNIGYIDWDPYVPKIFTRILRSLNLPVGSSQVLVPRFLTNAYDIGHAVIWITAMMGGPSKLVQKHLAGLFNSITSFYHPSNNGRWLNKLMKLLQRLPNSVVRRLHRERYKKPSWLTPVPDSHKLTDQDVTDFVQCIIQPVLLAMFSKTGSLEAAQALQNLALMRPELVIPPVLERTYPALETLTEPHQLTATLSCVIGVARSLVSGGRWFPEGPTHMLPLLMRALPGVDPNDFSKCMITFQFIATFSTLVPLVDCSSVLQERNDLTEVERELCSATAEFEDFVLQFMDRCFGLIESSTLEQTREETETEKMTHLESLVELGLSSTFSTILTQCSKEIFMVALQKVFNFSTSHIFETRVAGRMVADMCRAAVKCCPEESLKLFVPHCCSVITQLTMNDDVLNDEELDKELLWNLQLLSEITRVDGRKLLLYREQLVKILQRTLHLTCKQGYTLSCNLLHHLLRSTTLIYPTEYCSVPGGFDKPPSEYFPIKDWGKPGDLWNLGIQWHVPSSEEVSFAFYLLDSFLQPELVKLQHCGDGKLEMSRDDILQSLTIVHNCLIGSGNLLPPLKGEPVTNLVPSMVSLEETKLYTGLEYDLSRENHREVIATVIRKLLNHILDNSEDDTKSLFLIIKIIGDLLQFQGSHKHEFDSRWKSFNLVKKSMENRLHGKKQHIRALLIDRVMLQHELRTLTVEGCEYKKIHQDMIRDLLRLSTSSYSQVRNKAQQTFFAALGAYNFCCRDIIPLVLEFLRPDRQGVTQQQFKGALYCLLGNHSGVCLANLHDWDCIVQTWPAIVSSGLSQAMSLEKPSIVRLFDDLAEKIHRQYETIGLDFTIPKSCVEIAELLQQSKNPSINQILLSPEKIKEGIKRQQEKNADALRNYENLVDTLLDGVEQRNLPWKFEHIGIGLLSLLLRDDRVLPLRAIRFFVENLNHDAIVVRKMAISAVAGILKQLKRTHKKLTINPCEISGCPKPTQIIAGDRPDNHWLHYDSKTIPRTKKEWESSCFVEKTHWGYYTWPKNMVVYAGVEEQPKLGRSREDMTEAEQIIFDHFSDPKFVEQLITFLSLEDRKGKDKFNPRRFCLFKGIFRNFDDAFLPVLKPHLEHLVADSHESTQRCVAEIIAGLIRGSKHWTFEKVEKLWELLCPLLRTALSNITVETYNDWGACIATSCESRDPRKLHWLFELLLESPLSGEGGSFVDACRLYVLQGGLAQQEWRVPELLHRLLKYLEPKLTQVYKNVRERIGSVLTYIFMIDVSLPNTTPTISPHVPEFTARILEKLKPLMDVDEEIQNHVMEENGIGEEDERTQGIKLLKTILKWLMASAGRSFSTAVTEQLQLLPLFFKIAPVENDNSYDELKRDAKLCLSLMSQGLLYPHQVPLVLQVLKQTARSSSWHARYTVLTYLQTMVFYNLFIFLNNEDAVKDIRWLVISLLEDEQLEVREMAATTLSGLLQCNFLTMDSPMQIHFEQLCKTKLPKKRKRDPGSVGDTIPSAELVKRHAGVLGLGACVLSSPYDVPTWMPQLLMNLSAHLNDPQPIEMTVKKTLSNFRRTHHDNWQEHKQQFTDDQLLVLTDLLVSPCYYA
UniProt P67775: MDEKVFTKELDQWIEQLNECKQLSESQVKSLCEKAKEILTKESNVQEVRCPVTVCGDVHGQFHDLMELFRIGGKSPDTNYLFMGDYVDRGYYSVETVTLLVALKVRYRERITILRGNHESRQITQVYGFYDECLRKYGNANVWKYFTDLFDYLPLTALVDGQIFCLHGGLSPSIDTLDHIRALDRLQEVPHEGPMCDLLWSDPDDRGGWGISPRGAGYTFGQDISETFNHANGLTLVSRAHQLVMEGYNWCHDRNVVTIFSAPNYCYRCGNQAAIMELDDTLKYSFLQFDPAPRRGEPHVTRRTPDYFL
UniProt Q16531: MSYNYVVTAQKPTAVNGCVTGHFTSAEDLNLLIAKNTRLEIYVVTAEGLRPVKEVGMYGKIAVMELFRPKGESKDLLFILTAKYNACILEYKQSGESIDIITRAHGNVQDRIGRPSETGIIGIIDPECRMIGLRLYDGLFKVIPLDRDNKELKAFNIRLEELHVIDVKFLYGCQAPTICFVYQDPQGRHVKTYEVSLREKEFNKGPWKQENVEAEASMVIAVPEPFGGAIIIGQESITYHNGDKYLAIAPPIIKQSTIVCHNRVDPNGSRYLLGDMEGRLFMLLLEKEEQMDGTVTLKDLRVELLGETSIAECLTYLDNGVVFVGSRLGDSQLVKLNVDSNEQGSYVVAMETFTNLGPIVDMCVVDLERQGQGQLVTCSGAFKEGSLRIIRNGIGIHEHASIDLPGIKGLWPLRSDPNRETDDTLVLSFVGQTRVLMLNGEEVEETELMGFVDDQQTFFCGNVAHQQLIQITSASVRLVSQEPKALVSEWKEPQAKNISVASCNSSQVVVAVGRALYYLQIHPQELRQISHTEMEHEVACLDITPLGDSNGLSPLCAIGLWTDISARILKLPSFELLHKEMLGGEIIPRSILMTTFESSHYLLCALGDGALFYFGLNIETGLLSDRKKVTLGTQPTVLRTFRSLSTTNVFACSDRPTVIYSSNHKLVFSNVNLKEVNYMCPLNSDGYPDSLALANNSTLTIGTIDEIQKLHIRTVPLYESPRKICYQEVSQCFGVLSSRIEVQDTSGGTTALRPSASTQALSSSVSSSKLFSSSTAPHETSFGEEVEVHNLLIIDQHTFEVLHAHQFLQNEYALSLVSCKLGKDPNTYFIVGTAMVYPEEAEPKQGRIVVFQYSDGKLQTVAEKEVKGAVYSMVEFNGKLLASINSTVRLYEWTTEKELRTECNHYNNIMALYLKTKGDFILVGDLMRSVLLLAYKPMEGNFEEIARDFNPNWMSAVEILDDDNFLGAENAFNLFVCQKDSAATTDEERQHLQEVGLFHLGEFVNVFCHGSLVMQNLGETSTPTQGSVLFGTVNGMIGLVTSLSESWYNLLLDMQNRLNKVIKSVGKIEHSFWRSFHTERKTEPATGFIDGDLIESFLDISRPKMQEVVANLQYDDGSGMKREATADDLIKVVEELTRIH
UniProt Q06323: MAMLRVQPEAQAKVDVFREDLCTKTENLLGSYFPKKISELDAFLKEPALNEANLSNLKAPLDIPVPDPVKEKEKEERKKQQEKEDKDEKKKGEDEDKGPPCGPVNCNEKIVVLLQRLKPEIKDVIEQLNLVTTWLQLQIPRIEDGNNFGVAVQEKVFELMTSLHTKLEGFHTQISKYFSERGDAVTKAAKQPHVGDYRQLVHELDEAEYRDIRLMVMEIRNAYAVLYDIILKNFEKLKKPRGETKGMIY

What all share (experiment): affinity purification with mass spectrometry
Test [1] deals with cullin 4A (human (endogenous in human hepatocytes of chimeric mouse liver)) (UniProt Q13619).
Test [2] has as its target DCAF11 (IP from HepG2 cells) (human) (UniProt Q8TEB1).
In test [3] the target is DCAF8 (IP from HepG2 cells) (human) (UniProt Q5TAQ9).
Test [4] addresses cereblon (IP from HepG2 cells) (human) (UniProt Q96SW2).

No constants are given. Whether binding was seen depends on the method and setting. Binding seen in cells or lysates may run through a third protein. These calls come from enrichment with a bait or labelling near it, and not all partners need be listed.

For DCAF8 (from UniProt Q5TAQ9 1-597), the binding result in test [1] is reported as “binds”. Still for that read-out and setting: the same measure for RBBP4 (from UniProt Q09028 1-425): “binds”; for “Stromal Interaction Molecule 1 (from UniProt Q13586 23-685)”: “binds”; for “DEAD box protein 5 (from UniProt P17844 1-614)”: “binds”. Regarding “CUL4A (HepG2 cells) (from UniProt Q13619 1-759)”, the binding result in test [2], in test [3] and in test [4] was “binds” each time. With Cereblon (from UniProt Q96SW2 1-442), the binding result in test [1] is on record as “binds”.

As to “Proteasome Activator Subunit 4 (from UniProt Q14997 1-1843)”, in test [1], the binding entry is “binds”. Turning to “Protein Phosphatase 2 Catalytic Subunit Alpha (from UniProt P67775 1-309)”, the binding entry in test [1] is “binds”. Take “DDB1 (HepG2 cells) (from UniProt Q16531 1-1140)”: the binding entry in test [2] and in test [3] was “binds” each time. Take “Proteasome Activator Subunit 1 (from UniProt Q06323 1-249)”: the binding result in test [1] was “binds”.
